At least one compound was matched to its structure with a doubt left.
Legend:
Type in all cases: binding
[1] = tested on: Antibody A specific for cortisol (clone 16DC/17.7, IgG1κ); experiment: LOCI competitive cortisol immunoassay, cross-reactivity screening with Biotinylated Antibody A Reagent; conditions: 100% A Biotinylated Antibody; steroid-stripped serum with cortisol (5 ng/dL)
Description: (§1) The antibodies were subjected to analytical size exclusion chromatography prior to any manipulations.
(§2) NHS-PEO4-Biotin was dissolved fresh at 10 mg/mL in Antibody Dialysis Buffer. […] The mixture was rocked at 25° C. for exactly 3 hours. A 200 mM solution of glycine was prepared by dissolving 750 mg glycine in Antibody Dialysis Buffer to a total volume of 50 mL. At the end of the 3-hour biotinylation reaction, 1.52 mL of the 200 mM glycine solution was added to the reaction mixture. The quenched reaction mixture was rocked an additional 60 minutes at 25° C.
(§3) The biotinylated antibody was then purified using preparatory HPLC using Antibody Dialysis Buffer as the mobile phase. […]
(§4) The assay used for screening purposes was conducted on the DIMENSION® VISTA® instrument (system) (Siemens Healthcare Diagnostics Inc., Newark Del.). […] The LOCI® read was taken after approximately 5 minutes. The assay from the first reagent addition to the final read took approximately 16 minutes. The contents of the vessel when the final read is taken were as follows: 2 ng/mL Biotinylated Antibody Reagent, 4 μg/mL Chemibead Reagent, 56 μg/mL Sensibead Reagent, and 40 mL/mL sample. […]
(§5) Initial testing used Biotinylated Antibody A Reagent with the other reagents and the methodology described above to analyze the steroid-stripped serum with cortisol. […] Cross-reactivity data were calculated as follows: […]

[2] = tested on: Antibody L specific for cortisol (clone XM210, IgG2a); experiment: LOCI competitive cortisol immunoassay, cross-reactivity screening with Biotinylated Antibody L Reagent; conditions: 100% L Biotinylated Antibody; steroid-stripped serum with cortisol (5 ng/dL)
Description: as §1, §2, §3, §4, §5

[3] = tested on: mixture of Biotinylated Antibody A Reagent and Biotinylated Antibody L Reagent; experiment: LOCI competitive cortisol immunoassay, cross-reactivity with mixtures of Biotinylated Antibody A and L Reagents; conditions: steroid-stripped serum with cortisol
Description: The assay used for screening purposes was conducted on the DIMENSION® VISTA® instrument (system) (Siemens Healthcare Diagnostics Inc., Newark Del.). Initially, 20 μL Biotinylated Antibody Reagent with 15 μL system water was added to the vessel. After 22 seconds, 15 μL sample with 15 μL system water were added to the vessel. After almost 4 minutes, 20 μL Chemibead Reagent with 15 μL system water were added to the vessel. Approximately 7 minutes later, 20 μL Sensibead Reagent with 135 μL system water was added to the vessel. The LOCI® read was taken after approximately 5 minutes. The assay from the first reagent addition to the final read took approximately 16 minutes. The contents of the vessel when the final read is taken were as follows: 2 ng/mL Biotinylated Antibody Reagent, 4 μg/mL Chemibead Reagent, 56 μg/mL Sensibead Reagent, and […] sample. The assay is a competitive format, which means that the greater the concentration of analyte in the sample, the smaller is the signal generation. This is because a detectable complex is formed by the Biotinylated Antibody Reagent, Chemibead Reagent, and Sensibead Reagent in the absence of analyte. The presence of analyte decreases the proportion of Biotinylated Antibody Reagent that is free to form detectable complexes.
Initial testing used Biotinylated Antibody A Reagent with the other reagents and the methodology described above to analyze the steroid-stripped serum with cortisol. The panel of 34 cross-reactants were individually added to the steroid-stripped serum with a defined concentration of cortisol (5 ng/dL) and assayed. Cross-reactivity data were calculated as follows:
[formula] The same testing was performed using Biotinylated Antibody L Reagent. The compilation of the percent cross-reactivities for the 34 compounds is referred to as the cross-reactivity profile. The apparent cortisol concentration is the cortisol value obtained when testing a sample containing cortisol and the interfering substance by the above test method that also detects the interfering substance to some degree. […]

## C[C@@H]1C[C@H]2[C@@H]3CCC4=CC(=O)C=C[C@]4(C)[C@@]3(F)[C@@H](O)C[C@]2(C)[C@@]1(O)C(=O)CO [dexamethasone]
[1]
  percent cross reactivity: 0.1%
[2]
  percent cross reactivity: 14.8%
[3]; 70% A 30% L Biotinylated Antibody
  percent cross reactivity: 1.3%
[3]; 75% A 25% L Biotinylated Antibody
  percent cross reactivity: 1.0%
[3]; 80% A 20% L Biotinylated Antibody
  percent cross reactivity: 0.8%
